The source of these data is US6428965 (Johns Hopkins, dated 2002).

Assay [1] concerns the target rat neuropilin (neuropilin-1), full length (rat) (UniProt Q9QWJ9). The assay is described as follows: binding to transfected COS cells.
Assay [2] concerns the target T1, myc-tagged soluble neuropilin extracellular domain (myc-neuropilin^ex) (rat) (UniProt Q9QWJ9).
T1 sequence: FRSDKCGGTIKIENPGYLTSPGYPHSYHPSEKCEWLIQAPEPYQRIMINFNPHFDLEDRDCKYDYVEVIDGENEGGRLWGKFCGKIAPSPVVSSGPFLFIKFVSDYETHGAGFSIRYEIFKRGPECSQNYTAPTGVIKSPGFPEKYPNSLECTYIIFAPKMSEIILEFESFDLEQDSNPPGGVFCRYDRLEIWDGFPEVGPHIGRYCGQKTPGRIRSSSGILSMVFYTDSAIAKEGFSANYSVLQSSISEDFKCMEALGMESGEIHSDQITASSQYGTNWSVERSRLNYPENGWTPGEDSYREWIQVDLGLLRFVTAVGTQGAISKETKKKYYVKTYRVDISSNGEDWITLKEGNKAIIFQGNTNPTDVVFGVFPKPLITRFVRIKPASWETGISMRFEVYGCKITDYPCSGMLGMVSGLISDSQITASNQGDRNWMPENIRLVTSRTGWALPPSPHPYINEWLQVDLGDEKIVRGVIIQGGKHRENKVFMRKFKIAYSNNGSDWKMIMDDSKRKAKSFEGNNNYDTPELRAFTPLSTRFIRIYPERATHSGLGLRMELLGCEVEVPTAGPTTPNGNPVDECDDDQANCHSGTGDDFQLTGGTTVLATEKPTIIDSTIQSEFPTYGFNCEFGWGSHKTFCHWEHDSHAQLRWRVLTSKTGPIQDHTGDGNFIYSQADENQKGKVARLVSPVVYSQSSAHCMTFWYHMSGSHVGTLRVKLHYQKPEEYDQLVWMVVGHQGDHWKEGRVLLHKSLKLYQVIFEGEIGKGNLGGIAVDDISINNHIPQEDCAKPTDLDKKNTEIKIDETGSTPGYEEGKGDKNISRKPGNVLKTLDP
The assay is described as follows: co-immunoprecipitation with anti-myc antibody, AP activity.

Assay [3] deals with T1, myc-tagged soluble neuropilin extracellular domain (myc-neuropilin^ex) (rat). Put plainly: co-immunoprecipitation with anti-myc antibody, AP activity (FIG. 1F).

These are yes or no findings as the source states them, for the method shown. For part of these data: Binding seen in cells or lysates may run through a third protein. Some results given as binding are weak or reduced against the parent protein; the word gives no strength. Sequences can lack the tags named with a protein.

B1: myc epitope-tagged Sema III (Sema-myc) (ligand, human, UniProt Q14563 21-771, looked up, not shown: small tags and cut ends)
chain: NYQNGKNNVPRLKLSYKEMLESNNVITFNGLANSSSYHTFLLDEERSRLYVGAKDHIFSFDLVNIKDFQKIVWPVSYTRRDECKWAGKDILKECANFIKVLKAYNQTHLYACGTGAFHPICTYIEIGHHPEDNIFKLENSHFENGRGKSPYDPKLLTASLLIDGELYSGTAADFMGRDFAIFRTLGHHHPIRTEQHDSRWLNDPKFISAHLISESDNPEDDKVYFFFRENAIDGEHSGKATHARIGQICKNDFGGHRSLVNKWTTFLKARLICSVPGPNGIDTHFDELQDVFLMNFKDPKNPVVYGVFTTSSNIFKGSAVCMYSMSDVRRVFLGPYAHRDGPNYQWVPYQGRVPYPRPGTCPSKTFGGFDSTKDLPDDVITFARSHPAMYNPVFPMNNRPIVIKTDVNYQFTQIVVDRVDAEDGQYDVMFIGTDVGTVLKVVSIPKETWYDLEEVLLEEMTVFREPTAISAMELSTKQQQLYIGSTAGVAQLPLHRCDIYGKACAECCLARDPYCAWDGSACSRYFPTAKRRTRRQDIRNGDPLTHCSDLHHDNHHGHSPEERIIYGVENSSTFLECSPKSQRALVYWQFQRRNEERKEEIRVDDHIIRTDQGLLLRSLQQKDSGNYLCHAVEHGFIQTLLKVTLEVIDTEHLEELLHKDDDGDGSKTKEMSNSMTPSQKVWYRDFMQLINHPNLNTMDEFCEQVWKRDRKQRRQRPGHTPGNSNKWKHLQENKKGRNRRTHEFERAPRSV
For B1, the binding result in assay [1] is “binds”.

B2: H-Sema III-alkaline phosphatase fusion protein (Sema-AP) (ligand, human, UniProt Q14563 21-771, looked up)
chain: B1 chain
notes: Made in 293 EBNA cells from pCEP4 and used as supernatant; also called Sema III-AP; Sema III-secreted placental alkaline phosphatase fusion protein; not shown: secreted placental alkaline phosphatase of vector pAPtag-1 (Flanagan and Leder, 1990), C-terminal to Sema III; limits an
With B2, the binding result in assay [2] and in assay [3] was “binds” throughout.
